In patent US11173129B2, “Nanowire-coated microdevice and method of making and using the same” (The Regents of the University of California, priority 2014, dated 2021):

Assay: Drug/reagent loading (localization) efficiency on PCL nanowire arrays by confocal fluorescence imaging
Format: physicochemical
Conditions: elevated 40 μm features with PCL nanowires, loaded at 5 μg/cm^2, inverted and dried; averaged confocal Z-stacks

## FITC-BSA: water-soluble protein, fluorescein isothiocyanate labeled bovine serum albumin
  Drug loading efficiency (ratio of fluorescence intensity over micropatterned regions to intensity over entire analyzed region): 88±2%

## Oregon Green 488 paclitaxel
  Drug loading efficiency (ratio of fluorescence intensity over micropatterned regions to intensity over entire analyzed region): 94±1%
